The values that follow come from PMC7126824 (European Journal of Medicinal Chemistry, 2011).

Molecules are shown by their SMILES.

For the assay, the system named is HeLa (human cervix carcinoma) cells. In words: Cytostatic activity: inhibition of tumor cell proliferation. The format is cell-based. Conditions: read-out: IC50 (50% inhibitory concentration). A digest of the protocol:
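Exponentially growing tumour cells were seeded in 96-well plates with a range of test-compound concentrations: CEM lymphocytes at 75,000 cells/well for 3 days, HeLa cervix carcinoma cells at 20,000 cells/well for 4 days. Viable cells were counted with a Coulter counter. The 50% value is the concentration inhibiting tumour cell proliferation by 50%.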

With `N.N.[Cl][Pt][Cl]` [cisplatinum], the IC50 amounted to 220 nM.
